This is an account of results in paper PMC10721602.

The chains behind the UniProt entries cited, without tags or fusion partners. Residues count along the entry.
UniProt P16070, residues 21-742: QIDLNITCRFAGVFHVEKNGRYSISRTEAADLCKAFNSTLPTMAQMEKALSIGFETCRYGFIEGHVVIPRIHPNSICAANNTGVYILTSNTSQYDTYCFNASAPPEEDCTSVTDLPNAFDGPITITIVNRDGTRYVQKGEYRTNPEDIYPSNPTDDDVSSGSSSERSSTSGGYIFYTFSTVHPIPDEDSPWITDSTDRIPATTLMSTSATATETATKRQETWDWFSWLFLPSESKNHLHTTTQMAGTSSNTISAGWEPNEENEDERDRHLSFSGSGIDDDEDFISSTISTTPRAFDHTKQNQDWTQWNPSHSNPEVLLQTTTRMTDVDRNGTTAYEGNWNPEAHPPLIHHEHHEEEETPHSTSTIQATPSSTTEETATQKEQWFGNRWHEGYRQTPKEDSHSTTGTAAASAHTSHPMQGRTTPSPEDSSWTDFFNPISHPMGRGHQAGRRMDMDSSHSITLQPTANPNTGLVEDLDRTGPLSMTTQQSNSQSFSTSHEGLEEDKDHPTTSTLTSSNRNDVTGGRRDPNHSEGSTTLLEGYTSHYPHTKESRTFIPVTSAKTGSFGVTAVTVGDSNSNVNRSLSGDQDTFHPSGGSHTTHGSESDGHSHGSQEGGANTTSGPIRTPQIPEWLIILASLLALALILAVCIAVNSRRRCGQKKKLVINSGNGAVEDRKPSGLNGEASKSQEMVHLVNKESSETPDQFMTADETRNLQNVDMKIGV
UniProt P78536, residues 215-824: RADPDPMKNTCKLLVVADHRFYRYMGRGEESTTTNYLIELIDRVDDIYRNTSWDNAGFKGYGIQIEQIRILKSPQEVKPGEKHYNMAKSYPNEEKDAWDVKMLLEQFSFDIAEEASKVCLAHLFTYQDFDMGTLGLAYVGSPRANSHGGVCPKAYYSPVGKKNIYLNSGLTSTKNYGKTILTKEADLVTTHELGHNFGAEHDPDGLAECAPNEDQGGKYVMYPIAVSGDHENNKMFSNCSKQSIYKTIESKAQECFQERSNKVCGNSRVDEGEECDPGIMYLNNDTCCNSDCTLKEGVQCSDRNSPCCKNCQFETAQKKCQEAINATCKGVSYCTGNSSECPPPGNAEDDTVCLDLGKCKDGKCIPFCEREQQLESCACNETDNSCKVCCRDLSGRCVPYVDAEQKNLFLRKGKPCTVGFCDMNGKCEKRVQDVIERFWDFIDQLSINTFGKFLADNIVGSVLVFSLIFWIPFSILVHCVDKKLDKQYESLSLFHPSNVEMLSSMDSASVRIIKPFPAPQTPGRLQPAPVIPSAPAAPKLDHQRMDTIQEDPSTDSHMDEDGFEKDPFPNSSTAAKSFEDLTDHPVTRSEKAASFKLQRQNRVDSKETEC

Assay [1] concerns the target endogenous EGFR of A431 and NCI-H226 cells (human (endogenous in A431 and NCI-H226)) (UniProt P00533). In words: proximity labelling; EGFR-FabID on adherent NCI-H226 cells (endogenous EGFR), 37 °C, 3 h; DMSO, EGF, EGF+gefitinib or gefitinib alone; biotinylated peptides enriched with Tamavidin 2-REV, LC-MS/MS; AGIA-FabID as control.
Assay [2] has as its target human EGFR overexpressed in Expi293F cells (pcDNA3.1-EGFR) (human) (UniProt P00533). As to the kind of experiment: proximity labelling; EGFR-FabID (AirID-Fab of EMab-134) with ATP, MgCl2 and d-biotin on suspended Expi293F cells transiently overexpressing EGFR, 37 °C, 2 h; biotinylated peptides enriched with Tamavidin 2-REV, LC-MS/MS; AGIA-FabID as control (ratio >1, P < 0.05); extracellular sites only.

Assay [3] deals with endogenous EGFR of A431 and NCI-H226 cells (human (endogenous in A431 and NCI-H226)) (UniProt P00533). As to the kind of experiment: proximity labelling; EGFR-FabID on adherent A431 cells (endogenous EGFR), 37 °C, 2 h; DMSO, EGF, EGF+gefitinib or gefitinib alone; biotinylated peptides enriched with Tamavidin 2-REV, LC-MS/MS; AGIA-FabID as control.

These are yes or no findings as the source states them, for the method shown. In cells and extracts the contact can be indirect. A yes stands for co-enrichment or nearness to the bait. Other partners may have been found.

As for L1CAM (from UniProt P32004 20-1257), the binding entry in assay [1] is on record as “binds”.
With “CD44 (cell differentiation 44) (from UniProt P16070 21-742)”, the binding entry in assay [2], in assay [1] and in assay [3] was “binds” each time.
Turning to “EEF1A1 (elongation factor 1-alpha 1) (from UniProt P68104 1-462)”, the binding entry in assay [2], in assay [1] and in assay [3] was “binds” throughout.
For the substance “ADAM17 (disintegrin and metalloproteinase domain-containing protein 17), endogenous (from UniProt P78536 215-824) (enzyme)”, the binding result in assay [1] and in assay [3] was “binds” throughout.
